Assay results as given in US7045537B1, “Protein structures and protein fibres” (The University of Sussex, priority 1999, dated 2006).
Part of at least one peptide drawing is inferred or uncertain, most often the ends. Residues, ends and D or L forms follow the SMILES beside them.

Assay: Circular dichroism (CD) spectroscopy of peptides and peptide mixtures
Assay type: physicochemical
Conditions: individual peptide, 10 mM MOPS pH 7, 5° C.
Protocol: Peptide samples were incubated at 5° C. in 10 mM MOPS (3-(N-Morpholino)propanesulfonic acid), pH 7. Sample concentrations were determined from their UV absorbance at 280 nm (SAF-p1) and 214 nm (SAF-p2). After baseline correction, ellipticities in mdeg were converted to molar ellipticities (deg cm^2 dmol-res^−1) by normalizing for the concentration of peptide bonds. Data were recorded in a cell of 1 mm path length by integrating the signal for 5s (and 1s for the fresh 100 μM peptide mixture) every nm in the range 205–260 nm. CD measurements were made using a JASCO J-715 spectropolarimeter fitted with a Peltier temperature controller.
The CD data shown in FIG. 3 provides spectroscopic evidence for the formation of helical structures by the SAF peptides.
Consistent with our design, neither SAF-p1 nor SAF-p2 was highly structured in aqueous solution at pH 7 and 5° C. (FIG. 3). However, when mixed in equal proportions the circular dichroism (CD) spectrum changed and, moreover, was markedly different from the theoretical spectrum generated by averaging the spectra for the isolated peptides. In particular, the spectrum for the mixture had intense minima at 208 and 222 nm consistent with the formation of α-helical structure, but these features were not as pronounced in the spectra of the individual peptides. […]

CC[C@H](C)[C@H](NC(=O)[C@H](CCC(=O)O)NC(=O)CNC(=O)[C@@H]1CCCN1C(=O)CNC(=O)[C@H](Cc1ccc(O)cc1)NC(C)=O)C(=O)N[C@@H](C)C(=O)N[C@@H](C)C(=O)N[C@@H](CC(C)C)C(=O)N[C@@H](CCC(=O)O)C(=O)N[C@@H](CCC(N)=O)C(=O)N[C@@H](CCC(=O)O)C(=O)N[C@@H](CC(N)=O)C(=O)N[C@@H](C)C(=O)N[C@@H](C)C(=O)N[C@@H](CC(C)C)C(=O)N[C@@H](CCC(=O)O)C(=O)N[C@@H](CCC(N)=O)C(=O)O [CAP-p1A, *YGPGE IAALEQE NAALEQ] (Ac-YGPGEIAALEQENAALEQ-OH)
CD DATA @ 10 μM (α-helix): unfolded

CC[C@H](C)[C@H](NC(=O)[C@@H](N)CCCCN)C(=O)N[C@@H](C)C(=O)N[C@@H](C)C(=O)N[C@@H](CC(C)C)C(=O)N[C@@H](CCCCN)C(=O)N[C@@H](CCC(N)=O)C(=O)N[C@@H](CCCCN)C(=O)N[C@@H](CC(N)=O)C(=O)N[C@@H](C)C(=O)N[C@@H](C)C(=O)N[C@@H](CC(C)C)C(=O)N[C@@H](CCCCN)C(=O)N[C@@H](CCC(N)=O)C(=O)NCC(=O)NCC(=O)N[C@@H](Cc1c[nH]cn1)C(N)=O [CAP-p2A, K IAALKQK NAALKQG GH*] (H-KIAALKQKNAALKQGGH-NH2)
CD DATA @ 10 μM (α-helix): unfolded
